Measurements from the supplement of paper PMC10849652.
Some of the results follow.

Amino acid sequences for entries named in this document (tags omitted). A change or cut given only in a name is not applied to a line headed by its entry.
UniProt Q6PJ69: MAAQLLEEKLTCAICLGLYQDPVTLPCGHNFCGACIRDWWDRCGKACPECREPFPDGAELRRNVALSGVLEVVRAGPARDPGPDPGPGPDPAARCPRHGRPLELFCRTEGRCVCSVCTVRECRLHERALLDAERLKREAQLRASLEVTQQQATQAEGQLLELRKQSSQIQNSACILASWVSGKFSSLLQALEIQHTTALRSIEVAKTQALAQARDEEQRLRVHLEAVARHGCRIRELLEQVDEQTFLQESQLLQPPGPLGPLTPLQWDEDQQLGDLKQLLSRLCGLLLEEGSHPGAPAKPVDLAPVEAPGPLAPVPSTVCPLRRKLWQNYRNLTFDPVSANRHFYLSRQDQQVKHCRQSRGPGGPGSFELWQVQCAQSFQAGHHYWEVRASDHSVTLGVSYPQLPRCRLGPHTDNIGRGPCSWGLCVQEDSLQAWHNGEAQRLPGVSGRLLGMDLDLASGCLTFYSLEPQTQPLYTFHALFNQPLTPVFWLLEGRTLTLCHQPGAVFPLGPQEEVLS
UniProt Q9H3H1: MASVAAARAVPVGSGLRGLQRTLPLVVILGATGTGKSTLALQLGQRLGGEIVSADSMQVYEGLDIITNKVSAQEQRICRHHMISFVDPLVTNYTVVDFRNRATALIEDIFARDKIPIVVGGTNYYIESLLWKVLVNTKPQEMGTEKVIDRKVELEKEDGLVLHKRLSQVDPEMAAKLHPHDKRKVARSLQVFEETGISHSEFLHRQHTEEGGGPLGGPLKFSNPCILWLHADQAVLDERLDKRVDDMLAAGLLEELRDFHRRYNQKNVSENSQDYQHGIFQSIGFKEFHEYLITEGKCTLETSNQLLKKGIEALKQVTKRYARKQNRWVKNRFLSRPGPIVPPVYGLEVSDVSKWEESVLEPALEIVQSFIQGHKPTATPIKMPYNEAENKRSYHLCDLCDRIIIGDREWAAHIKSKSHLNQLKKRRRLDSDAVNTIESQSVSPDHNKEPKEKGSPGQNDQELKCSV
UniProt Q99598: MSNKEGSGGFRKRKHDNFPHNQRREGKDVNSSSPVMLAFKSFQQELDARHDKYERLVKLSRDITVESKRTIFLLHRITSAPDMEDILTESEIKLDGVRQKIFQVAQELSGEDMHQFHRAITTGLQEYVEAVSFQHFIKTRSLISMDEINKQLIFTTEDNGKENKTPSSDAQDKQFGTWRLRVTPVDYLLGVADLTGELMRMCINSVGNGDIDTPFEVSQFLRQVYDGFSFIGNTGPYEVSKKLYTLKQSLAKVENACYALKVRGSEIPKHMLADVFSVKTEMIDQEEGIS
UniProt Q9Y5U2: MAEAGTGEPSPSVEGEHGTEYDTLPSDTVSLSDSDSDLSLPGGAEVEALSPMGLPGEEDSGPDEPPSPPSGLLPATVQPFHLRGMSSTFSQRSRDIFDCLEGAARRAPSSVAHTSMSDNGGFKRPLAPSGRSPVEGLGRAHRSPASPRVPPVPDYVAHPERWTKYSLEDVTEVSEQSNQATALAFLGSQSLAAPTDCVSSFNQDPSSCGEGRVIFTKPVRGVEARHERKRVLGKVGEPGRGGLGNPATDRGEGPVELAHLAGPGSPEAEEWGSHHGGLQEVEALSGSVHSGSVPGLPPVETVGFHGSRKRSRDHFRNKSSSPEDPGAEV
UniProt Q8N0Z6: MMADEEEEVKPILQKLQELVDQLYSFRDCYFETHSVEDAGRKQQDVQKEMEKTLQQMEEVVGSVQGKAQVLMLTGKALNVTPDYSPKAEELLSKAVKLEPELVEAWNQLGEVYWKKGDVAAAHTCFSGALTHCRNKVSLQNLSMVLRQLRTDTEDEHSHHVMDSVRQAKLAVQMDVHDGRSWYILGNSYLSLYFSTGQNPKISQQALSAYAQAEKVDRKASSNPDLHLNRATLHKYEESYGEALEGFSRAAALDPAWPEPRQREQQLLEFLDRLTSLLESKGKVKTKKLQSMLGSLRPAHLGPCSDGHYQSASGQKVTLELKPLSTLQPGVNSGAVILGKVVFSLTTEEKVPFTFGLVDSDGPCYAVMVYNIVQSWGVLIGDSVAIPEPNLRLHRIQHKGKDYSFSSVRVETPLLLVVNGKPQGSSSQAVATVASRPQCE
UniProt Q99614: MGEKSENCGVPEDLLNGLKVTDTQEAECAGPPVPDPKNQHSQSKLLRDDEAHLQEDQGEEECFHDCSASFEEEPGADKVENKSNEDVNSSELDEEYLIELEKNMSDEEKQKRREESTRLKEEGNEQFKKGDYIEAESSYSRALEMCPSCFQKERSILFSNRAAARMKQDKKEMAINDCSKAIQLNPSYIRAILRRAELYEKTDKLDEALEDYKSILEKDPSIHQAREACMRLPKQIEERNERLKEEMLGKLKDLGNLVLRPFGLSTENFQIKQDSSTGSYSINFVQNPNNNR
UniProt Q9BQ61: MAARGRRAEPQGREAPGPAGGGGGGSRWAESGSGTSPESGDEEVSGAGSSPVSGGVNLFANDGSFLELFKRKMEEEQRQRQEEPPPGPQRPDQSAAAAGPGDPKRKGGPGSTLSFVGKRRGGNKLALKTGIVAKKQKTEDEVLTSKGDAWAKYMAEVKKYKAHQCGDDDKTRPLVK
UniProt Q12933: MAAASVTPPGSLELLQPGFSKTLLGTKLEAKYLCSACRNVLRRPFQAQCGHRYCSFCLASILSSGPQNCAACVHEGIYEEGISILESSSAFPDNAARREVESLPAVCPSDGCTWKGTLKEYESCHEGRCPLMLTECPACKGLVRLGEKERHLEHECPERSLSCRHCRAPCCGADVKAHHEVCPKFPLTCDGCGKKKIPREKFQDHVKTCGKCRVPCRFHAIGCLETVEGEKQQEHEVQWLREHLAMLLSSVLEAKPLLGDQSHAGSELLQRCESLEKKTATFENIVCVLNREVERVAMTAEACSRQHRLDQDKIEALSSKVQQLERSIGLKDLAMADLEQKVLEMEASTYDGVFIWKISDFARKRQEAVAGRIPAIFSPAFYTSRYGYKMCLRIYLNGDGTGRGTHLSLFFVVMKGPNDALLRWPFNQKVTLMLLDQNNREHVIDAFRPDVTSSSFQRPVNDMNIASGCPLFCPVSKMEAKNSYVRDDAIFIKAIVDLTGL
UniProt Q5BVD1: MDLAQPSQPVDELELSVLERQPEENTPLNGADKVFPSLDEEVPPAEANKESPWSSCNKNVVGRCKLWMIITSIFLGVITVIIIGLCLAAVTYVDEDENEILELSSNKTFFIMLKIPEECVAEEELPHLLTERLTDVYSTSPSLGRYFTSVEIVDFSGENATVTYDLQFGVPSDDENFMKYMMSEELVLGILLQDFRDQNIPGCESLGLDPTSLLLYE
UniProt Q9Y4K3: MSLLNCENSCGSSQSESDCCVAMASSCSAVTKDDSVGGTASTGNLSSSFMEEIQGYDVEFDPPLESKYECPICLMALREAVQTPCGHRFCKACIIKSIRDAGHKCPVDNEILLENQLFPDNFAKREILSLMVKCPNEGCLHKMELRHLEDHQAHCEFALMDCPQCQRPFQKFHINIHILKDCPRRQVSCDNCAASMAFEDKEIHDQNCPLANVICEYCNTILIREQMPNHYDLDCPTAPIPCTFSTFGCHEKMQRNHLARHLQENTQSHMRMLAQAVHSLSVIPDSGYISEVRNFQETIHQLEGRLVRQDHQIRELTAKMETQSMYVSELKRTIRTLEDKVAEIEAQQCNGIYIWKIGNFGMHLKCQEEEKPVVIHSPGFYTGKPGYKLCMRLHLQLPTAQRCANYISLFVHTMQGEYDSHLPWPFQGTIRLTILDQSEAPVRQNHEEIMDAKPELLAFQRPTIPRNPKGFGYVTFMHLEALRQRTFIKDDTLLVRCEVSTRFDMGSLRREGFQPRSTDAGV
UniProt Q7L0Y3: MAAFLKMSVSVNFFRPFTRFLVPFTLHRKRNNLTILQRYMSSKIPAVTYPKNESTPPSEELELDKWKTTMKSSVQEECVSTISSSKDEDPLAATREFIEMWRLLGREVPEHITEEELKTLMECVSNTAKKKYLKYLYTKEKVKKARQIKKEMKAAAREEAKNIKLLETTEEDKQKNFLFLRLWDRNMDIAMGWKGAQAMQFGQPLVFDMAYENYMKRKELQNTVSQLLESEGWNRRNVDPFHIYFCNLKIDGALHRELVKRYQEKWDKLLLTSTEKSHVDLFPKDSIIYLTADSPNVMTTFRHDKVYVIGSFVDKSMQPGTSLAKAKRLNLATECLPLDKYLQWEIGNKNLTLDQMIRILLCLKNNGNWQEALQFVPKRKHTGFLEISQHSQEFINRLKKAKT
UniProt Q9UNY4: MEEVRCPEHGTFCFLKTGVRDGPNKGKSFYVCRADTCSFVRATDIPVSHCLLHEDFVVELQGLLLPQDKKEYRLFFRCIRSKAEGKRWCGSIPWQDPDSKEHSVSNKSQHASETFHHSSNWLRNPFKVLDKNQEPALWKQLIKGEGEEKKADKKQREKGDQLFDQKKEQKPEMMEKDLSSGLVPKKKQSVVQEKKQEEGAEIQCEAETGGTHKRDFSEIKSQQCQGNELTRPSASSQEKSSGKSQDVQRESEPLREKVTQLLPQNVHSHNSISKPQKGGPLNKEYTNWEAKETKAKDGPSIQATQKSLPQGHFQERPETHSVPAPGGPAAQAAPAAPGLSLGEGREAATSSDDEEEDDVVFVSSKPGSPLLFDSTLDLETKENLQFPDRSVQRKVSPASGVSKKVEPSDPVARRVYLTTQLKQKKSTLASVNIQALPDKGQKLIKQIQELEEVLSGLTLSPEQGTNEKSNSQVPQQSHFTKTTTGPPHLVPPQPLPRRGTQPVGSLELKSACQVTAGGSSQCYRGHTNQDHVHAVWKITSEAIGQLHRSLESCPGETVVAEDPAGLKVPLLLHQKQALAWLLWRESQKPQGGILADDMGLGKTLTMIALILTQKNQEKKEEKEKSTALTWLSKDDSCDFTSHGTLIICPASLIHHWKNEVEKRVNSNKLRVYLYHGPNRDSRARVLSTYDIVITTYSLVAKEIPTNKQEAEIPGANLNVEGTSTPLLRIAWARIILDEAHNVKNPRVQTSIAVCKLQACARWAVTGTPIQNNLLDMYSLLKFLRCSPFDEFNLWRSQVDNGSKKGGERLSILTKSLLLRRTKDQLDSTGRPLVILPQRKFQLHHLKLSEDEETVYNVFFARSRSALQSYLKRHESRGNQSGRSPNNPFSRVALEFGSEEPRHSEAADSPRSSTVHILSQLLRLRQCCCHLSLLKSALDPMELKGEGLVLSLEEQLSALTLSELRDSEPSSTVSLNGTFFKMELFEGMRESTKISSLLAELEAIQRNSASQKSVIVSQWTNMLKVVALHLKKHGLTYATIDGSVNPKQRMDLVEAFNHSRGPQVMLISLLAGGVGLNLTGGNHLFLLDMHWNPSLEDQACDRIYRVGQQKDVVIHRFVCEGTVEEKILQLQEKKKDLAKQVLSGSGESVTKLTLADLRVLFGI
UniProt P33981: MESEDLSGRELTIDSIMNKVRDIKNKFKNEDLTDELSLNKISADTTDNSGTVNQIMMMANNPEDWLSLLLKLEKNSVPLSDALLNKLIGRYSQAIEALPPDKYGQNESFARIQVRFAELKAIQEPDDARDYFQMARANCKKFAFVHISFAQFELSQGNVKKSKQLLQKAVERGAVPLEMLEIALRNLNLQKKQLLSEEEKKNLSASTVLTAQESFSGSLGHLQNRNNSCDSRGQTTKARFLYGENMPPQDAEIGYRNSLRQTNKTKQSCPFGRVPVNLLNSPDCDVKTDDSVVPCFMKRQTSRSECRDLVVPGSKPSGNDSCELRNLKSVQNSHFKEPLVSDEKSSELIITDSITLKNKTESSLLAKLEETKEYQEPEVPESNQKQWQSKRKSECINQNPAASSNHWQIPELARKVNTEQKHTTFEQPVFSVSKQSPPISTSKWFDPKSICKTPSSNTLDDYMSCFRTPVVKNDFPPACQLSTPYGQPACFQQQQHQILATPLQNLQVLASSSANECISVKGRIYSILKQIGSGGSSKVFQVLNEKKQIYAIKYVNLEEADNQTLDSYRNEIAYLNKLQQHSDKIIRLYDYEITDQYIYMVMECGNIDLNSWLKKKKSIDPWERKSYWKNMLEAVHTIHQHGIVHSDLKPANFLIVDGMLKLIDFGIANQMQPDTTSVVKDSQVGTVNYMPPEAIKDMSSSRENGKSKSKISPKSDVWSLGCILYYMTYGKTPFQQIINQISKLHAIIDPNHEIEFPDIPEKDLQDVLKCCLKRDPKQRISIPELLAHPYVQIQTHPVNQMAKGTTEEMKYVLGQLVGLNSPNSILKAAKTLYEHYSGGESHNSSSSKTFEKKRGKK

Experiments:
Experiment in all cases: log2 fold change, soluble protein after heating vs DMSO (PISA); higher = thermal stabilisation; K562 lysate, 10 uM; active = over 0.2 and 3.5 SD of the protein, either way, in both replicates (recomputed)
erlotinib = compound: C#Cc1cccc(Nc2ncnc3cc(OCCOC)c(OCCOC)cc23)c1 [erlotinib]
In short: (§1)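 Values give the log-two fold change in thermal stability against solvent controls, from duplicates. Crude K562 extract at 1 mg/mL protein, made by dounce homogenisation in PBS pH 7.4 with 1 mM MgCl2, was treated with 10 μM compound for 30 min. After 3 min heating across 48°C-58°C, aliquots were pooled, adjusted to 0.5% NP-40 at 4°C and centrifuged at 21,000xg for 90 min. The supernatant was measured by TMTpro 16plex LC-MS/MS with channel sums equalised.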

[1] = compound: C/C(=N\NC(=O)C1=CC(=CC=C1)S(=O)(=O)N2CCOCC2)/C3=C(C=CC(=C3)Cl)O
In short: as §1

[2] = compound: C1=CC(=CC=C1C2=NC3=C(N2)C=C(C=C3)C(=O)N)OC4=CC=C(C=C4)Cl
In short: as §1

[3] = compound: C1=CC2=C(C=CC(=C2)/C=C\3/C(=O)NC(=NCC4=CC=CS4)S3)N=C1
In short: as §1

[4] = compound: C1=CC2=NC=CN=C2C=C1/C=C/3\C(=O)NC(=O)S3
In short: as §1

[5] = compound: C1=CC=C(C=C1)C2=NC(=C(N2)C3=CC=NC=C3)C4=CC(=C(C=C4)Cl)O
In short: as §1

[6] = compound: C1=CC=C2C(=C1)C3=NNC4=CC=CC(=C43)C2=O
In short: as §1

[7] = compound: C1CCN(C1)C(=O)NC2=CC=CC(=C2)NC3=NC=C(C(=N3)NCCC4=CN=CN4)Br
In short: as §1

[8] = compound: C1CN(CCC1(CC2=CC=C(C=C2)Cl)N)C3=NC=NC4=C3C=CN4
In short: as §1

IRAK-1-4 Inhibitor I = compound: C1COCCN1CCN2C3=CC=CC=C3N=C2NC(=O)C4=CC(=CC=C4)[N+](=O)[O-] [IRAK-1-4 Inhibitor I]
In short: as §1

ibrutinib = compound: C=CC(=O)N1CCC[C@@H](n2nc(-c3ccc(Oc4ccccc4)cc3)c3c(N)ncnc32)C1 [ibrutinib]
In short: as §1

[9] = compound: CC(=O)c1cnc2ccc(-c3cc(Cl)c(O)c(Cl)c3)nc2c1N[C@H]1CC[C@H](CN(C)C)CC1
In short: as §1

ralimetinib = compound: CC(C)(C)Cn1c(N)nc2ccc(-c3[nH]c(C(C)(C)C)nc3-c3ccc(F)cc3)nc21 [ralimetinib]
In short: as §1

[10] = compound: CC(C)(O)CC(=O)NCCn1ccc2ncnc(Nc3ccc(Oc4cccc(C(F)(F)F)c4)c(Cl)c3)c21
In short: as §1

[11] = compound: CC(C)C1=C2N=C(C=C(N2N=C1)NCC3=CC=CC=C3)NCCCCCCN
In short: as §1

[12] = compound: CC1=C(C(CC(=O)N1)C2=CC=C(C=C2)C(F)(F)F)C(=O)NC3=C(C=C4C(=C3)C=NN4)F
In short: as §1

[13] = compound: CC1=C(C2=C(C=C1)C(=O)C3=CC=CC=C3N2CCCN)C
In short: as §1

[14] = compound: CC1=C(C=C(C=C1)NC(=O)C2=CC(=CC=C2)C(C)(C)C#N)NC3=CC4=C(C=C3)N=CN(C4=O)C
In short: as §1

[15] = compound: CC1=C(C=C(C=C1)NC(=O)C2=CC(=CC=C2)N(C)C)NC(=O)C3=CC=C(C=C3)O
In short: as §1

[16] = compound: CC1=CC=C(C=C1)SC2=C3C=C(SC3=CN=C2)C(=O)N
In short: as §1

Measured: log2 fold change

TRAPPC2 isoform 3 (UniProt P0DI81)
inactive: erlotinib 0.094 | [1] 0.063 | [2] 0.066 | [3] 0.042 | [4] 0 | [5] 0.022 | [6] -0.107 | [7] -0.026 | [8] -0.025 | IRAK-1-4 Inhibitor I -0.022 | ibrutinib 0.029 | [9] -0.031 | ralimetinib 0 | [10] 0.015 | [11] -0.039 | [12] -0.116 | [13] -0.204 | [14] -0.022 | [15] 0.018 | [16] 0.02

TRIM65 (UniProt Q6PJ69)
inactive: erlotinib 0.047 | [1] -0.072 | [2] -0.008 | [3] 0.021 | [4] -0.005 | [5] -0.044 | [6] -0.054 | [7] 0.026 | [8] 0.007 | IRAK-1-4 Inhibitor I -0.025 | ibrutinib 0.053 | [9] 0.073 | ralimetinib 0.046 | [10] -0.035 | [11] 0.005 | [12] 0.047 | [13] 0.006 | [14] 0.006 | [15] 0.003 | [16] -0.063

TRIT1 (UniProt Q9H3H1)
inactive: erlotinib -0.062 | [1] 0.04 | [2] -0.05 | [3] -0.028 | [4] 0.061 | [5] -0.008 | [6] -0.15 | [7] -0.023 | [8] 0.007 | IRAK-1-4 Inhibitor I 0.054 | ibrutinib 0.122 | [9] 0.021 | ralimetinib 0.085 | [10] 0.011 | [11] 0.025 | [12] -0.012 | [13] -0.035 | [14] -0.036 | [15] 0.008 | [16] 0.027

TSNAX (UniProt Q99598)
inactive: erlotinib -0.013 | [1] -0.015 | [2] 0.023 | [3] 0.003 | [4] -0.012 | [5] -0.004 | [6] 0.034 | [7] -0.005 | [8] 0.01 | IRAK-1-4 Inhibitor I 0.009 | ibrutinib 0.014 | [9] 0.002 | ralimetinib -0.021 | [10] 0.009 | [11] -0.006 | [12] 0.006 | [13] -0.007 | [14] 0.015 | [15] 0.003 | [16] -0.011

TSSC4 (UniProt Q9Y5U2)
inactive: erlotinib 0.018 | [1] -0.115 | [2] 0.007 | [3] 0.097 | [4] 0.036 | [5] -0.015 | [6] 0 | [7] 0.045 | [8] -0.013 | IRAK-1-4 Inhibitor I -0.028 | ibrutinib 0.011 | [9] -0.074 | ralimetinib 0.004 | [10] 0.007 | [11] 0.046 | [12] -0.089 | [13] -0.021 | [14] 0.05 | [15] 0 | [16] -0.015

TTC5 (UniProt Q8N0Z6)
inactive: erlotinib -0.015 | [1] -0.089 | [2] -0.014 | [3] -0.034 | [4] 0.041 | [5] 0.022 | [6] 0.016 | [7] 0.017 | [8] 0.033 | IRAK-1-4 Inhibitor I -0.008 | ibrutinib 0.019 | [9] 0.007 | ralimetinib 0.017 | [10] 0.001 | [11] 0.042 | [12] -0.089 | [13] -0.01 | [14] 0.017 | [15] 0.016 | [16] -0.001

TTC1 (UniProt Q99614)
inactive: erlotinib -0.026 | [1] -0.05 | [2] 0.021 | [3] 0.004 | [4] -0.044 | [5] 0.011 | [6] 0.004 | [7] -0.028 | [8] -0.024 | IRAK-1-4 Inhibitor I -0.024 | ibrutinib -0.01 | [9] -0.012 | ralimetinib -0.016 | [10] -0.03 | [11] -0.001 | [12] -0.009 | [13] -0.002 | [14] -0.051 | [15] -0.016 | [16] -0.026

TRMT112 (UniProt Q9UI30)
inactive: erlotinib 0.003 | [1] 0.004 | [2] 0.008 | [3] -0.002 | [4] 0.019 | [5] -0.059 | [6] -0.024 | [7] -0.044 | [8] 0.059 | IRAK-1-4 Inhibitor I -0.041 | ibrutinib 0.058 | [9] -0.011 | ralimetinib -0.002 | [10] -0.011 | [11] -0.024 | [12] 0.009 | [13] 0.019 | [14] 0.043 | [15] -0.009 | [16] 0.029

TRIR (UniProt Q9BQ61)
inactive: erlotinib -0.017 | [1] 0.016 | [2] 0.07 | [3] 0.014 | [4] -0.087 | [5] 0.04 | [6] -0.01 | [7] 0.003 | [8] 0.04 | IRAK-1-4 Inhibitor I -0.006 | ibrutinib 0.023 | [9] 0.003 | ralimetinib -0.011 | [10] 0.015 | [11] 0.01 | [12] -0.024 | [13] -0.024 | [14] 0.024 | [15] 0.007 | [16] -0.011

TRAF2 isoform 2 (UniProt Q12933)
inactive: erlotinib 0.026 | [1] -0.002 | [2] 0.008 | [3] 0.013 | [4] -0.016 | [5] -0.01 | [6] -0.015 | [7] -0.008 | [8] 0.029 | IRAK-1-4 Inhibitor I 0.033 | ibrutinib -0.026 | [9] -0.002 | ralimetinib 0.022 | [10] -0.022 | [11] -0.051 | [12] -0.004 | [13] -0.028 | [14] 0.029 | [15] -0.009 | [16] -0.006

TTMP isoform 3 (UniProt Q5BVD1)
inactive: erlotinib 0.121 | [1] -0.173 | [2] -0.023 | [3] -0.106 | [4] -0.026 | [5] -0.026 | [6] -0.08 | [7] -0.05 | [8] 0.086 | IRAK-1-4 Inhibitor I 0.193 | ibrutinib 0.09 | [9] 0 | ralimetinib -0.034 | [10] -0.22 | [11] -0.038 | [12] -0.091 | [13] -0.02 | [14] 0.296 | [15] -0.004 | [16] -0.099

TRMT61B (UniProt Q9BVS5)
inactive: erlotinib 0.03 | [1] -0.02 | [2] 0.025 | [3] 0.016 | [4] -0.015 | [5] -0.014 | [6] -0.003 | [7] 0.067 | [8] 0.025 | IRAK-1-4 Inhibitor I 0.019 | ibrutinib 0.006 | [9] -0.018 | ralimetinib 0.002 | [10] -0.04 | [11] -0.002 | [12] -0.017 | [13] 0 | [14] -0.013 | [15] -0.008 | [16] -0.015

TRAF6 (UniProt Q9Y4K3)
inactive: erlotinib -0.019 | [1] -0.068 | [2] 0.016 | [3] 0.033 | [4] -0.014 | [5] -0.021 | [6] -0.03 | [7] -0.017 | [8] -0.005 | IRAK-1-4 Inhibitor I -0.013 | ibrutinib 0.03 | [9] 0.014 | ralimetinib 0.01 | [10] -0.009 | [11] -0.041 | [12] 0.074 | [13] 0.005 | [14] 0.046 | [15] 0.013 | [16] -0.012

Two consecutive records already listed, for reference:
TTMP isoform 3 (UniProt Q5BVD1)
inactive: erlotinib 0.121 | [1] -0.173 | [2] -0.023 | [3] -0.106 | [4] -0.026 | [5] -0.026 | [6] -0.08 | [7] -0.05 | [8] 0.086 | IRAK-1-4 Inhibitor I 0.193 | ibrutinib 0.09 | [9] 0 | ralimetinib -0.034 | [10] -0.22 | [11] -0.038 | [12] -0.091 | [13] -0.02 | [14] 0.296 | [15] -0.004 | [16] -0.099

TRMT61B (UniProt Q9BVS5)
inactive: erlotinib 0.03 | [1] -0.02 | [2] 0.025 | [3] 0.016 | [4] -0.015 | [5] -0.014 | [6] -0.003 | [7] 0.067 | [8] 0.025 | IRAK-1-4 Inhibitor I 0.019 | ibrutinib 0.006 | [9] -0.018 | ralimetinib 0.002 | [10] -0.04 | [11] -0.002 | [12] -0.017 | [13] 0 | [14] -0.013 | [15] -0.008 | [16] -0.015

The results go on.

TRMT10C (UniProt Q7L0Y3)
inactive: erlotinib 0.008 | [1] 0.008 | [2] 0.046 | [3] -0.002 | [4] -0.005 | [5] 0.021 | [6] -0.012 | [7] -0.027 | [8] 0.032 | IRAK-1-4 Inhibitor I -0.023 | ibrutinib 0.013 | [9] -0.018 | ralimetinib 0.032 | [10] 0.03 | [11] 0.019 | [12] 0.001 | [13] -0.007 | [14] -0.054 | [15] 0.024 | [16] -0.016

TTF2 (UniProt Q9UNY4)
inactive: erlotinib 0.043 | [1] -0.003 | [2] 0.063 | [3] -0.001 | [4] -0.026 | [5] 0.042 | [6] -0.046 | [7] 0.039 | [8] 0.032 | IRAK-1-4 Inhibitor I -0.006 | ibrutinib 0.003 | [9] -0.121 | ralimetinib 0.035 | [10] -0.006 | [11] -0.02 | [12] 0.037 | [13] -0.084 | [14] -0.058 | [15] -0.018 | [16] -0.115

TTK (UniProt P33981)
inactive: erlotinib -0.032 | [1] -0.1 | [2] 0.09 | [3] -0.034 | [4] 0.004 | [5] 0.039 | [6] 0.258 | [7] 0.054 | [8] -0.039 | IRAK-1-4 Inhibitor I -0.032 | ibrutinib 0.008 | [9] 0.111 | ralimetinib 0.025 | [10] -0.036 | [11] 0.001 | [12] 0.018 | [13] -0.008 | [14] -0.011 | [15] 0.017 | [16] 0.013
